Measured data: PubChem BioAssay AID1508588 (Peter MacCallum Cancer Centre, 2020)

Purpose: 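Which gene losses make BRAF-mutant melanoma cells more responsive to vemurafenib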 (primary screen)
Cell system: human WM266.4 melanoma cells (BRAF V600 mutant)
Reagent: siRNA pool against human genes, 40 nM
Duration: 96 h from transfection to read-out
Treatment: vemurafenib 300 nM (about IC25), added 48 h after transfection, for 48 h; comparison arm got DMSO vehicle only
Measured: 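Ratios to non-targeting siRNA for cell gain, counted as DAPI nuclei after minus before drug and averaged over two replicates, and for absorbance-read medium lactate per cell; both binned into fold-change classes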
Direction: cell gain with vemurafenib: higher = more cell gain than with non-targeting siRNA; lactate per cell with vemurafenib: higher = more lactate made per cell
Active means: 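a knock-down counts as enhancing when its fold-change classes with vehicle and with vemurafenib, taken together, show a stronger drug effect on cell gain or lactate per cell; exact class pairs not stated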
Meaning of the calls: active = enhances vemurafenib effect; inactive = no enhancement seen
In all, the deposit lists about 18,000 reagents; below is an unselected part. 790 of them (4.4%) were called active. 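Calls rest on a combination of fold-change classes in drug and vehicle arms, not all shown here.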 Reagents against one gene are numbered here.

APEX1 (apurinic/apyrimidinic endodeoxyribonuclease 1) → cell gain with vemurafenib: 0.75; lactate per cell with vemurafenib: 0.86; outcome: inactive
DDC (dopa decarboxylase) → cell gain with vemurafenib: 0.65; lactate per cell with vemurafenib: 0.58; outcome: inactive
MMP14 (matrix metallopeptidase 14) → cell gain with vemurafenib: 0.45; lactate per cell with vemurafenib: 1; outcome: inactive
TRIM75 (tripartite motif containing 75) → cell gain with vemurafenib: 1.07; lactate per cell with vemurafenib: 0.9; outcome: inactive
REPIN1 (replication initiator 1) → cell gain with vemurafenib: 0.71; lactate per cell with vemurafenib: 0.64; outcome: inactive
IGFLR1 (IGF like family receptor 1) → cell gain with vemurafenib: 0.9; lactate per cell with vemurafenib: 1.28; outcome: inactive
MT1HL1 (metallothionein 1H like 1) → cell gain with vemurafenib: 0.33; lactate per cell with vemurafenib: 0.88; outcome: inactive
STEAP2 (STEAP2 metalloreductase) → cell gain with vemurafenib: 0.64; lactate per cell with vemurafenib: 0.33; outcome: active
HSPB9 (heat shock protein family B (small) member 9) → cell gain with vemurafenib: 0.83; lactate per cell with vemurafenib: 0.65; outcome: inactive
TXNDC16 (thioredoxin domain containing 16) → cell gain with vemurafenib: 0.86; lactate per cell with vemurafenib: 0.84; outcome: inactive
CCSER1 (coiled-coil serine rich protein 1) → cell gain with vemurafenib: 0.65; lactate per cell with vemurafenib: 0.86; outcome: inactive
ZNF804B (zinc finger protein 804B) → cell gain with vemurafenib: 1.03; lactate per cell with vemurafenib: 0.6; outcome: inactive
PML (PML nuclear body scaffold) → cell gain with vemurafenib: 0.35; lactate per cell with vemurafenib: 1.27; outcome: inactive
NAALADL2 (N-acetylated alpha-linked acidic dipeptidase like 2) → cell gain with vemurafenib: 0.49; lactate per cell with vemurafenib: 1.1; outcome: inactive
HCK (HCK proto-oncogene, Src family tyrosine kinase) → cell gain with vemurafenib: 1.06; lactate per cell with vemurafenib: 0.62; outcome: inactive
EPHA8 (EPH receptor A8) → cell gain with vemurafenib: 0.22; lactate per cell with vemurafenib: 1.94; outcome: inactive
UCHL1 (ubiquitin C-terminal hydrolase L1) → cell gain with vemurafenib: 0.58; lactate per cell with vemurafenib: 1.12; outcome: inactive
TPBG (trophoblast glycoprotein) → cell gain with vemurafenib: 0.58; lactate per cell with vemurafenib: 0.52; outcome: inactive
PEPD (peptidase D) → cell gain with vemurafenib: 0.42; lactate per cell with vemurafenib: 1.01; outcome: inactive
CCNA1 (cyclin A1) → cell gain with vemurafenib: 0.6; lactate per cell with vemurafenib: 1.01; outcome: inactive
RNASE2 (ribonuclease A family member 2) → cell gain with vemurafenib: 1.04; lactate per cell with vemurafenib: 1.23; outcome: inactive
TPTE2 → cell gain with vemurafenib: 1.32; lactate per cell with vemurafenib: 0.49; outcome: active
FCRL2 (Fc receptor like 2) → cell gain with vemurafenib: 0.34; lactate per cell with vemurafenib: 1.27; outcome: inactive
OR10G3 (olfactory receptor family 10 subfamily G member 3) → cell gain with vemurafenib: 0.76; lactate per cell with vemurafenib: 0.94; outcome: inactive
OR6C68 (olfactory receptor family 6 subfamily C member 68) → cell gain with vemurafenib: 0.38; lactate per cell with vemurafenib: 0.48; outcome: inactive
SYF2 (SYF2 pre-mRNA splicing factor) → cell gain with vemurafenib: 0.26; lactate per cell with vemurafenib: 0.46; outcome: inactive

An excerpt from above, limited to “cell gain with vemurafenib”.
CCNA1 (cyclin A1): 0.6
RNASE2 (ribonuclease A family member 2): 1.04
TPTE2: 1.32
FCRL2 (Fc receptor like 2): 0.34

More entries:
FOXD4L3 (forkhead box D4 like 3) #1 → cell gain with vemurafenib: 0.77; lactate per cell with vemurafenib: 1.05; outcome: inactive
FOXD4L3 (forkhead box D4 like 3) #2 → cell gain with vemurafenib: 0.71; lactate per cell with vemurafenib: 0.66; outcome: inactive
GPR119 (G protein-coupled receptor 119) → cell gain with vemurafenib: 0.72; lactate per cell with vemurafenib: 0.82; outcome: inactive
ITIH2 (inter-alpha-trypsin inhibitor heavy chain 2) → cell gain with vemurafenib: 0.62; lactate per cell with vemurafenib: 0.48; outcome: active
CRYL1 (crystallin lambda 1) → cell gain with vemurafenib: 0.27; lactate per cell with vemurafenib: 1.73; outcome: inactive
IVNS1ABP (influenza virus NS1A binding protein) → cell gain with vemurafenib: -0.11; lactate per cell with vemurafenib: 3; outcome: inactive
ITGAM (integrin subunit alpha M) → cell gain with vemurafenib: 0.62; lactate per cell with vemurafenib: 0.79; outcome: inactive
DEPDC1B (DEP domain containing 1B) → cell gain with vemurafenib: 0.68; lactate per cell with vemurafenib: 1.12; outcome: inactive
CIZ1 (CDKN1A interacting zinc finger protein 1) → cell gain with vemurafenib: 0.79; lactate per cell with vemurafenib: 1.08; outcome: inactive
QSOX1 (quiescin sulfhydryl oxidase 1) → cell gain with vemurafenib: 0.39; lactate per cell with vemurafenib: 1.85; outcome: inactive
UTP14A (UTP14A small subunit processome component) → cell gain with vemurafenib: 0.81; lactate per cell with vemurafenib: 1.49; outcome: inactive
MS4A4A (membrane spanning 4-domains A4A) → cell gain with vemurafenib: 0.35; lactate per cell with vemurafenib: 1.12; outcome: inactive
C1QTNF8 (C1q and TNF related 8) → cell gain with vemurafenib: 0.47; lactate per cell with vemurafenib: -0.08; outcome: inactive
LYG1 (lysozyme g1) → cell gain with vemurafenib: 0.57; lactate per cell with vemurafenib: 0.38; outcome: inactive
